Literature values in patent publication US20170049688A1, “Herbal Combinations For Treating Psoriasis” (Sirbal Ltd., priority 2015, published 2017).
At least one structure is not confirmed: it was looked up by name or label, or the drawing left a doubt.

Experiments:
[1] = cited from earlier work
murine melanoma = details: 5 mg/kg; cited from earlier work

SMILES: O=C1c2cccc(O)c2C(=O)c2c(O)cc(CO)cc21 [Aloe-emodin]
- ED50 (oral purgative) [1]: 59.6 mg/kg

SMILES: Cc1cc(O)c2c(c1)C(=O)c1cccc(O)c1C2=O [Chrydophanol]
- ED50 (oral purgative) [1]: >500 mg/kg

SMILES: O=C(O)c1cc(O)c2c(c1)C(=O)c1cccc(O)c1C2=O [Rhein]
- inhibition rate against murine melanoma (murine melanoma): 76%
- ED50 (oral purgative) [1]: 97.5 mg/kg
